# The supplement of paper PMC6411743
# The chains behind the UniProt entries cited, without tags or fusion partners. Where a name states a change or a piece, a line headed by the entry shows the natural chain unless it says otherwise.
# UniProt Q9BWW4: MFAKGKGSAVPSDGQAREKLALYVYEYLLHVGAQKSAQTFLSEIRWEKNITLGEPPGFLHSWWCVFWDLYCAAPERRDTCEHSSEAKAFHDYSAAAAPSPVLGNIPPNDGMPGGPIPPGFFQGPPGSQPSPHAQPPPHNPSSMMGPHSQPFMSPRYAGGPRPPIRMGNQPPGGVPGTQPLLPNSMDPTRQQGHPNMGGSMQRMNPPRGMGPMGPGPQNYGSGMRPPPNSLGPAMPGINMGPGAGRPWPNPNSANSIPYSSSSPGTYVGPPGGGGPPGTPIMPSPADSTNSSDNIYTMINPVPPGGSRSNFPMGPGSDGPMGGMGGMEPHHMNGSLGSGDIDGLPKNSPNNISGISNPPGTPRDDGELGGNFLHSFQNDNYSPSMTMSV
# UniProt Q9BXR0: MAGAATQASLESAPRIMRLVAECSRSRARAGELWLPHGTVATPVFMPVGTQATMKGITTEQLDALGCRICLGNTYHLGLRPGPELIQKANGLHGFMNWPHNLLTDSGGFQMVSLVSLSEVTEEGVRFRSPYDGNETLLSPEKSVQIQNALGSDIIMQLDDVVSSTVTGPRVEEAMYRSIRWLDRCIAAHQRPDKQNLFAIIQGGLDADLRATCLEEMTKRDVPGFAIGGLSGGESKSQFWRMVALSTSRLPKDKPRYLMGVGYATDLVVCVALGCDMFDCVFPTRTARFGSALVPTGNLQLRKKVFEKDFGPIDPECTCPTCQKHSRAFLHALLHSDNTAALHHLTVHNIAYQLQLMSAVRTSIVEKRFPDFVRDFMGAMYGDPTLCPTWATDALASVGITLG
# UniProt Q9BVM2: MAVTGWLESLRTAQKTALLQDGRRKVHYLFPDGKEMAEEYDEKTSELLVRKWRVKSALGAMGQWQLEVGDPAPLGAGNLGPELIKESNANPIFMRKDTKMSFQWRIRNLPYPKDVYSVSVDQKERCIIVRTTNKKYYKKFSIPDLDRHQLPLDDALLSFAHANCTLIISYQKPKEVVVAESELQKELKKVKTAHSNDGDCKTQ
# UniProt Q9BUQ8: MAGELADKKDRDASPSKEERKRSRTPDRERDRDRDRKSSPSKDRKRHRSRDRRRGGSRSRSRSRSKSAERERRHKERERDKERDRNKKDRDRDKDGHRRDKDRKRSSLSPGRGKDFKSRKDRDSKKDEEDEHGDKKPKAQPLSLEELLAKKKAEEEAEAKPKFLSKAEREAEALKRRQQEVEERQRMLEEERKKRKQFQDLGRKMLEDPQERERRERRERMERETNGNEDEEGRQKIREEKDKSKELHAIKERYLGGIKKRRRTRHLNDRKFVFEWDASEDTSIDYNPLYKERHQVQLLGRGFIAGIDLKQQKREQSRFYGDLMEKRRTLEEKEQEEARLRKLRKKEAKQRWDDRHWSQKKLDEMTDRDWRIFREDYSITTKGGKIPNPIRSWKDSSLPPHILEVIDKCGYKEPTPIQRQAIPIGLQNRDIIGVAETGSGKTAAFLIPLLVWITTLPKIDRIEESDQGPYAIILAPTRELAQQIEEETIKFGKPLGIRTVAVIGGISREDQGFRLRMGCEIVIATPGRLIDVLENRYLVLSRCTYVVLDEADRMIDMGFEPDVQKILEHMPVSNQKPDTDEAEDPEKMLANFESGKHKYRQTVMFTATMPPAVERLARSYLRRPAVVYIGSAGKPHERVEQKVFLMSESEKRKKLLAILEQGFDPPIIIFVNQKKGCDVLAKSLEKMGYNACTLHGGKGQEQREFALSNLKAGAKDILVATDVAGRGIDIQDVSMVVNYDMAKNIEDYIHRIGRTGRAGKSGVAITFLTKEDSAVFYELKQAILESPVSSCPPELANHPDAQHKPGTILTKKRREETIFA
# UniProt Q9BYC5: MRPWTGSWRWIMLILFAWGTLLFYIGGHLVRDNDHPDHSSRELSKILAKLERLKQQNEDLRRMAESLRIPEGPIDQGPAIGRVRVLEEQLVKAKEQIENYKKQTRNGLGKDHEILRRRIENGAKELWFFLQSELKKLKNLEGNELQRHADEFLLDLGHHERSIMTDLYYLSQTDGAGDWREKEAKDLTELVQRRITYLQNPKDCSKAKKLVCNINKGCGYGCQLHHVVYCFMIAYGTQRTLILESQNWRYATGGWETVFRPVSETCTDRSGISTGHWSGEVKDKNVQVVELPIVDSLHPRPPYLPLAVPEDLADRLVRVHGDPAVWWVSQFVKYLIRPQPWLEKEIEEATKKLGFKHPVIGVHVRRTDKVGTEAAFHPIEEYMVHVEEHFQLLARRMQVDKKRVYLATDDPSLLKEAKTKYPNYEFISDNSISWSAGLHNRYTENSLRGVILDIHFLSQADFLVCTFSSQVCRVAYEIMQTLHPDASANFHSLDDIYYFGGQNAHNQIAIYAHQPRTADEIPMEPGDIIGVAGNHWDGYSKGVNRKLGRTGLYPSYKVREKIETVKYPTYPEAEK
# UniProt Q9BRG1: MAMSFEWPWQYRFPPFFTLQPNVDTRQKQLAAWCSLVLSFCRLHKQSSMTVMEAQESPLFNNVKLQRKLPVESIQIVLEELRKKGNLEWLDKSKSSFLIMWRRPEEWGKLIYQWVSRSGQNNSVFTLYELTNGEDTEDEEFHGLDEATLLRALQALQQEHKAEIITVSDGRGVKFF
# UniProt Q9BS26: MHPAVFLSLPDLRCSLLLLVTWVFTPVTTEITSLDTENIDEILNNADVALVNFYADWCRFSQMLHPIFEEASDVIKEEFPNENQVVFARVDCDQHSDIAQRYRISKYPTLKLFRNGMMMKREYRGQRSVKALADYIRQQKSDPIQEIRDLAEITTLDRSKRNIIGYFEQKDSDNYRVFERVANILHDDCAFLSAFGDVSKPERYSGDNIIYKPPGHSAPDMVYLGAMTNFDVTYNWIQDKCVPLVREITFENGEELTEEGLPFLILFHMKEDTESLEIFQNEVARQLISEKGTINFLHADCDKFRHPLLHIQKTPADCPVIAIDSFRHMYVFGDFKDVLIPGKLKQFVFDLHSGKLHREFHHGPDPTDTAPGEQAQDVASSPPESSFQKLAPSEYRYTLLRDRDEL
# UniProt Q99757: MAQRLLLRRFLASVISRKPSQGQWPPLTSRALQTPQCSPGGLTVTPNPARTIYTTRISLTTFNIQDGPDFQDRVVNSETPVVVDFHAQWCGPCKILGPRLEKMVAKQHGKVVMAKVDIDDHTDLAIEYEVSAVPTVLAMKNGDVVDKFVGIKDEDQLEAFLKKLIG
# UniProt Q9BTT6: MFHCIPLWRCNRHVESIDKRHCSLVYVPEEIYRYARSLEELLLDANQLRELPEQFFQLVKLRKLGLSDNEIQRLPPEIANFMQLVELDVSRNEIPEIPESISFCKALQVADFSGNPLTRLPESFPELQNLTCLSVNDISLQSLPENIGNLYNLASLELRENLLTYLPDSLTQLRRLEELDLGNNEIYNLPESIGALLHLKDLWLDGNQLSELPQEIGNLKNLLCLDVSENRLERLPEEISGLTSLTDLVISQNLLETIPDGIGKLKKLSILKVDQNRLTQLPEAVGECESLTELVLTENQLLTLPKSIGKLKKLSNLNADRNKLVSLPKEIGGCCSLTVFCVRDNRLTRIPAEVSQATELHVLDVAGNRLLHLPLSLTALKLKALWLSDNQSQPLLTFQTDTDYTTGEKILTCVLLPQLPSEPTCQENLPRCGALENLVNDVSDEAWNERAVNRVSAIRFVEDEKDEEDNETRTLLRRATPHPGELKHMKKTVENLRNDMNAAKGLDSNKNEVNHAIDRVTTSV
# UniProt Q9BTL3: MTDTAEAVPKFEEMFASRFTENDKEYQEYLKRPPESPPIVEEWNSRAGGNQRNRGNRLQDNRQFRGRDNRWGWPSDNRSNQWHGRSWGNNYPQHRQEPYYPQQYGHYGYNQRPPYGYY
# UniProt Q9BXM9: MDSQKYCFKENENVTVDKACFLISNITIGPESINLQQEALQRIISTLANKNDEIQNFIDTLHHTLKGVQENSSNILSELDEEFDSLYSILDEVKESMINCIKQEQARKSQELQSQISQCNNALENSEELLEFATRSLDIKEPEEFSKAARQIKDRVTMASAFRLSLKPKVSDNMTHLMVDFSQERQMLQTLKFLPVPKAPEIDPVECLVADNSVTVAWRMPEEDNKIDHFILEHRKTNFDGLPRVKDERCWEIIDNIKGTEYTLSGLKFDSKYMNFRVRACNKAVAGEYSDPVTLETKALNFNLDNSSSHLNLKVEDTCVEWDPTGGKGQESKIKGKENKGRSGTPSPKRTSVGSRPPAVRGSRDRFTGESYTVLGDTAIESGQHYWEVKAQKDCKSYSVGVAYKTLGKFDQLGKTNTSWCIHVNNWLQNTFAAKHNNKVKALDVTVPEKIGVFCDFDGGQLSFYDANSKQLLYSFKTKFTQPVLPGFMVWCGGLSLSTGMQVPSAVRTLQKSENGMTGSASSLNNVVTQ
# UniProt Q9BY49: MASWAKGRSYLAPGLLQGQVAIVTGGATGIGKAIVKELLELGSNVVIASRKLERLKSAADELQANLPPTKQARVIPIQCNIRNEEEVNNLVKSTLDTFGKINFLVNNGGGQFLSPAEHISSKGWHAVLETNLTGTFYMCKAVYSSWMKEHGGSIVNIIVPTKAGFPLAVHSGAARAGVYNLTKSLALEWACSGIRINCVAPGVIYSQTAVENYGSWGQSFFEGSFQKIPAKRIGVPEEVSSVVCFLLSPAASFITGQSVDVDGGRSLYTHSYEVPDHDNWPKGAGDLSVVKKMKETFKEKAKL
# UniProt Q9BVC3, whole entry: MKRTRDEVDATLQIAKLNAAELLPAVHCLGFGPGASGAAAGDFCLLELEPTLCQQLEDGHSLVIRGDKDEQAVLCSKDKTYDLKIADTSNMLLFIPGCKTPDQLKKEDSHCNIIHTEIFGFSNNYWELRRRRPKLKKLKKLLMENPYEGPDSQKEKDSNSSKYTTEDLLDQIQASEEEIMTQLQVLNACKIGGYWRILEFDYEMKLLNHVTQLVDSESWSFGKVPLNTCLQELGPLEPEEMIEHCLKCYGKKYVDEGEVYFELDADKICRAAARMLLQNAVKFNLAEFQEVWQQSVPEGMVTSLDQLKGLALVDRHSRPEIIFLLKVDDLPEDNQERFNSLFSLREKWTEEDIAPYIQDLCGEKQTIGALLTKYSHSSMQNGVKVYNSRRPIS
# UniProt Q9BSL1: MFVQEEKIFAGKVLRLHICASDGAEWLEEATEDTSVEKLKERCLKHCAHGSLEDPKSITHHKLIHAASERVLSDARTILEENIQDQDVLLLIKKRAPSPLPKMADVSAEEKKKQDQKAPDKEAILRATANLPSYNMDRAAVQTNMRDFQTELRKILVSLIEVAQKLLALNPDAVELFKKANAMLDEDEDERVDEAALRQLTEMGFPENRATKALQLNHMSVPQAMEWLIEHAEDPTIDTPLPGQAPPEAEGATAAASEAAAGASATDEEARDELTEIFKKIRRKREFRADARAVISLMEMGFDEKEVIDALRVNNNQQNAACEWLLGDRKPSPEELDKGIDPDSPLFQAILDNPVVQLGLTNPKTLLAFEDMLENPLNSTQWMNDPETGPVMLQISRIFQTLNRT
# ± gives the standard deviation of the averaged measurements. This is a selection; strong and weak results do not stand in their true shares. Most values lie at the level of the controls, where differences are scatter.
# Compound: Nc1ncnc2c1ncn2[C@@H]1O[C@H](COP(=O)(O)OP(=O)(O)OP(=O)(O)O)[C@@H](O)[C@H]1O [adenosine triphosphate]
# Experiment: NP40-soluble protein abundance relative to vehicle (solubility fold change) (ratio); higher = more soluble protein in presence of ATP
# Outline: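 Jurkat crude lysate (Dounce-homogenised) was treated with eight concentrations from 0.1 to 10 mM for 10 min at room temperature, then 3 min at 37 °C. It was solubilised with 0.8% NP40 and benzonase (60 min, 4 °C) and ultracentrifuged, and the supernatant was TMT-labelled for LC-MS/MS. Intensities were vsn-normalised, and the value is the fold change against the NP40-processed vehicle per replicate, from three independent experiments.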
Target,NP40-soluble protein abundance (concentration: 0.1mM),NP40-soluble protein abundance (concentration: 0.5mM),NP40-soluble protein abundance (concentration: 1mM),NP40-soluble protein abundance (concentration: 2mM),NP40-soluble protein abundance (concentration: 4mM),NP40-soluble protein abundance (concentration: 6mM),NP40-soluble protein abundance (concentration: 8mM),NP40-soluble protein abundance (concentration: 10mM)
UniProt Q9BWW4 and related entries,0.964 ± 0.11,0.952 ± 0.078,1.05 ± 0.11,0.958 ± 0.12,0.933 ± 0.12,0.999 ± 0.12,0.956 ± 0.056,0.906 ± 0.1
QTRT1 (UniProt Q9BXR0),1.05 ± 0.052,1.05 ± 0.038,1.01 ± 0.12,0.995 ± 0.091,1.02 ± 0.049,0.925 ± 0.14,0.994 ± 0.049,0.985 ± 0.051
DPCD (UniProt Q9BVM2),0.983 ± 0.028,1.04 ± 0.044,0.965 ± 0.024,1.02 ± 0.045,0.969 ± 0.01,0.933 ± 0.048,0.929 ± 0.069,1.01 ± 0.087
DDX23 (UniProt Q9BUQ8),0.976 ± 0.063,1.02 ± 0.084,1.14 ± 0.052,1.23 ± 0.1,1.38 ± 0.13,1.52 ± 0.21,1.69 ± 0.17,1.81 ± 0.2
FUT8 (UniProt Q9BYC5),1.06 ± 0.027,1.07 ± 0.027,1 ± 0.035,0.987 ± 0.052,1.02 ± 0.025,0.9889 ± 0.0069,1.04 ± 0.045,1.01 ± 0.039
VPS25 (UniProt Q9BRG1),1.05 ± 0.083,1.05 ± 0.084,–,–,–,–,–,–
UniProt Q9BS26,1.02 ± 0.034,1.02 ± 0.062,0.982 ± 0.043,0.956 ± 0.035,0.943 ± 0.057,0.945 ± 0.067,0.952 ± 0.06,0.941 ± 0.054
TXN2 (UniProt Q99757),1.02 ± 0.092,0.948 ± 0.1,–,–,–,–,–,–
PAFAH2 (UniProt Q99487),1.06 ± 0.079,1 ± 0.072,1 ± 0.098,1.01 ± 0.074,0.978 ± 0.053,1 ± 0.27,0.992 ± 0.05,1.02 ± 0.064
UniProt Q9BTT6,0.999 ± 0.074,0.976 ± 0.062,0.931 ± 0.073,0.916 ± 0.081,0.945 ± 0.049,0.967 ± 0.092,0.961 ± 0.092,0.922 ± 0.045
UniProt Q9BTL3,0.899 ± 0.08,0.88 ± 0.026,0.928 ± 0.13,0.882 ± 0.066,0.95 ± 0.059,1 ± 0.11,0.888 ± 0.028,0.869 ± 0.059
UniProt Q9BXM9 and related entries,0.993 ± 0.055,0.99 ± 0.058,–,–,–,–,–,–
GTPBP4 (UniProt Q9BZE4),1.08 ± 0.052,1.17 ± 0.019,–,–,–,–,–,–
PECR (UniProt Q9BY49),0.979 ± 0.061,0.933 ± 0.033,0.965 ± 0.093,0.966 ± 0.037,0.994 ± 0.073,0.984 ± 0.076,1.02 ± 0.053,1.05 ± 0.033
DSCC1 (UniProt Q9BVC3),1.03 ± 0.025,1.07 ± 0.028,1.04 ± 0.038,1.06 ± 0.011,1.03 ± 0.018,1.01 ± 0.021,1.077 ± 0.0062,1.05 ± 0.037
UBAC1 (UniProt Q9BSL1),0.979 ± 0.013,0.999 ± 0.06,0.988 ± 0.025,1 ± 0.025,1.03 ± 0.033,1.04 ± 0.061,0.965 ± 0.034,0.98 ± 0.038

# Two entries from above, with tabs.
Target	NP40-soluble protein abundance (concentration: 0.1mM)	NP40-soluble protein abundance (concentration: 0.5mM)	NP40-soluble protein abundance (concentration: 1mM)	NP40-soluble protein abundance (concentration: 2mM)	NP40-soluble protein abundance (concentration: 4mM)	NP40-soluble protein abundance (concentration: 6mM)	NP40-soluble protein abundance (concentration: 8mM)	NP40-soluble protein abundance (concentration: 10mM)
UniProt Q9BTL3	0.899 ± 0.08	0.88 ± 0.026	0.928 ± 0.13	0.882 ± 0.066	0.95 ± 0.059	1 ± 0.11	0.888 ± 0.028	0.869 ± 0.059
UniProt Q9BXM9 and related entries	0.993 ± 0.055	0.99 ± 0.058	–	–	–	–	–	–
